Assay results from PMC5847545.
No constants are given. Whether binding was seen depends on the method and setting. In cells and extracts the contact can be indirect. Some entries that bind do so weakly or less than the wild type. For some of these results: Sequences can lack the tags named with a protein. Blank lines part the entries; values can stand above or below the molecule they belong to.

Protein sequences, listed by entry. Tags and fused reporters are not part of them.
UniProt Q9ULW0: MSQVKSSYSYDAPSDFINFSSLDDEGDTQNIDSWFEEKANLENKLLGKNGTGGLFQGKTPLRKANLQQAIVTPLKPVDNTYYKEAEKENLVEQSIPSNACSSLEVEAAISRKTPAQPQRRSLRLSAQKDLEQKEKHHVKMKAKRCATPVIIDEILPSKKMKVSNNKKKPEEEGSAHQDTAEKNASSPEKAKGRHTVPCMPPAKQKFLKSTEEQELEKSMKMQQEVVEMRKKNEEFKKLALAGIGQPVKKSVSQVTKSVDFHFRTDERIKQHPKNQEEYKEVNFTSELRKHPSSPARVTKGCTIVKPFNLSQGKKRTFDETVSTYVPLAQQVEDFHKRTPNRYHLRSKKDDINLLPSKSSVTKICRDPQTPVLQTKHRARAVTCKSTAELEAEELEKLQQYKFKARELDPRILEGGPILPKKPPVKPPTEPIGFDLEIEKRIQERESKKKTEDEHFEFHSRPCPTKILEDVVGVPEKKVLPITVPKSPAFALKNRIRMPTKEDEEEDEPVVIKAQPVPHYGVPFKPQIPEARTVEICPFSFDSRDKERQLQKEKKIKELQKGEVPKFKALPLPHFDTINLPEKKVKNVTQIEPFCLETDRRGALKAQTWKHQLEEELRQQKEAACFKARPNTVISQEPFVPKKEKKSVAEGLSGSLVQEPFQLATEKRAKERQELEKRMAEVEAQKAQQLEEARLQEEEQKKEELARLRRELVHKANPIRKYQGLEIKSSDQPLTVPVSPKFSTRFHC
UniProt Q92793: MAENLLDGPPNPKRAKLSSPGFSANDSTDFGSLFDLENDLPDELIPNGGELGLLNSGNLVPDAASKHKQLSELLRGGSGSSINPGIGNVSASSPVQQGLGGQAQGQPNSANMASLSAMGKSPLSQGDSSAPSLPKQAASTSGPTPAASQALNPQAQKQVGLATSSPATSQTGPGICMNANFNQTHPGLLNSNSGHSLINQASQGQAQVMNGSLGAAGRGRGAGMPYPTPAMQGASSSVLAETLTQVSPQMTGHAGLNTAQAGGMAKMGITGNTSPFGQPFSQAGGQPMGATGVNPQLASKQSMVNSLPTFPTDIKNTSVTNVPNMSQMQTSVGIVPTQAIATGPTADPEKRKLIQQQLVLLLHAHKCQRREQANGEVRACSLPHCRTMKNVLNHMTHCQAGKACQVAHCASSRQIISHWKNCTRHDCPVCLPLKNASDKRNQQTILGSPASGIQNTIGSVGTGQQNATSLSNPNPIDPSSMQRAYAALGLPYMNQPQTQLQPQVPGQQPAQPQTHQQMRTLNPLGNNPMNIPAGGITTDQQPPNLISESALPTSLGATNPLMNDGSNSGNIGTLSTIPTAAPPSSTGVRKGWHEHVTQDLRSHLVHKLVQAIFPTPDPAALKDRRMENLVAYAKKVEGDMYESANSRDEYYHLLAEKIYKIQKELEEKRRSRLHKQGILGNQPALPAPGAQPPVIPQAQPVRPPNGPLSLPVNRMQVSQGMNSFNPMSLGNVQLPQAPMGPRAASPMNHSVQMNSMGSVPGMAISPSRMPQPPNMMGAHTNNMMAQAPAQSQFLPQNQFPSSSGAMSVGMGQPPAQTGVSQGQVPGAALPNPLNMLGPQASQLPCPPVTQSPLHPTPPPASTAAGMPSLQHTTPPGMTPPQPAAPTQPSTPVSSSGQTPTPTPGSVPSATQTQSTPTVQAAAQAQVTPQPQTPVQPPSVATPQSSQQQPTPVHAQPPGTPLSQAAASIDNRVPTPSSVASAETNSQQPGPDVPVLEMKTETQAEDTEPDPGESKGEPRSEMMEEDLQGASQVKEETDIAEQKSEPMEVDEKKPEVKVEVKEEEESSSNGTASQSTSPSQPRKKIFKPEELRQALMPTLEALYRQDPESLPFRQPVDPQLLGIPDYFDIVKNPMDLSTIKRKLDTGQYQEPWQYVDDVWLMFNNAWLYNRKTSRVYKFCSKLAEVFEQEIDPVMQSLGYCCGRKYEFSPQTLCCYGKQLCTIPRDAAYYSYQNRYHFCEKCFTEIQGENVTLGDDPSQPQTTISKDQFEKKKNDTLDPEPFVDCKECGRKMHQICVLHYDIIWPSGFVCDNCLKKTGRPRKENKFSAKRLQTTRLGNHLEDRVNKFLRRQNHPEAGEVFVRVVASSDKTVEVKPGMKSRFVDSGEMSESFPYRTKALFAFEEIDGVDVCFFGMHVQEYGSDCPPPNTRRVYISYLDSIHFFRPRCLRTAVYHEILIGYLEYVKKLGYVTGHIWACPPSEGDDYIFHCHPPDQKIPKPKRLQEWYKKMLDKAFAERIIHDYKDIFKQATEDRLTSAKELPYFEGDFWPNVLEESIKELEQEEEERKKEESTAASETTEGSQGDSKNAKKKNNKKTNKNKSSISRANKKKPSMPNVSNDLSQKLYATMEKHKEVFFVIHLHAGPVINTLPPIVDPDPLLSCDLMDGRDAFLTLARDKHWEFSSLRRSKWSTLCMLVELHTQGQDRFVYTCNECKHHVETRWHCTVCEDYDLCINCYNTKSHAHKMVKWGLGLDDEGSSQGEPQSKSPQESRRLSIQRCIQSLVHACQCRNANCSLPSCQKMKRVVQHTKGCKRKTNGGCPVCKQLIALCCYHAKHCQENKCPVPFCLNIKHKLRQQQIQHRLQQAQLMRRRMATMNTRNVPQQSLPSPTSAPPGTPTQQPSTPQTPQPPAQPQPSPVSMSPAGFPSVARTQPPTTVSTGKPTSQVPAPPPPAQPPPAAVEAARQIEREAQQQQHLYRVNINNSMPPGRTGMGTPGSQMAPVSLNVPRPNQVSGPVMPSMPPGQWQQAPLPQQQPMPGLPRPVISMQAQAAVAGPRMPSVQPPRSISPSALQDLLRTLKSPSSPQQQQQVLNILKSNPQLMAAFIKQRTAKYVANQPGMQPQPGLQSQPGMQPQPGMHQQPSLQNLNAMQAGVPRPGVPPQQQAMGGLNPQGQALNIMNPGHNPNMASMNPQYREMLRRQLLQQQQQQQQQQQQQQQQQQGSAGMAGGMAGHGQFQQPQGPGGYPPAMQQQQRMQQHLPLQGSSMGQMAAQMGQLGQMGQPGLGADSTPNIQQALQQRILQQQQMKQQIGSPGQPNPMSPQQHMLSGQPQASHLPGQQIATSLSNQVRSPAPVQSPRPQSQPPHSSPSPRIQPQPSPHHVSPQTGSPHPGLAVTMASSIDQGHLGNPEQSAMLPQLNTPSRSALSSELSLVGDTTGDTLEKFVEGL
UniProt P45481: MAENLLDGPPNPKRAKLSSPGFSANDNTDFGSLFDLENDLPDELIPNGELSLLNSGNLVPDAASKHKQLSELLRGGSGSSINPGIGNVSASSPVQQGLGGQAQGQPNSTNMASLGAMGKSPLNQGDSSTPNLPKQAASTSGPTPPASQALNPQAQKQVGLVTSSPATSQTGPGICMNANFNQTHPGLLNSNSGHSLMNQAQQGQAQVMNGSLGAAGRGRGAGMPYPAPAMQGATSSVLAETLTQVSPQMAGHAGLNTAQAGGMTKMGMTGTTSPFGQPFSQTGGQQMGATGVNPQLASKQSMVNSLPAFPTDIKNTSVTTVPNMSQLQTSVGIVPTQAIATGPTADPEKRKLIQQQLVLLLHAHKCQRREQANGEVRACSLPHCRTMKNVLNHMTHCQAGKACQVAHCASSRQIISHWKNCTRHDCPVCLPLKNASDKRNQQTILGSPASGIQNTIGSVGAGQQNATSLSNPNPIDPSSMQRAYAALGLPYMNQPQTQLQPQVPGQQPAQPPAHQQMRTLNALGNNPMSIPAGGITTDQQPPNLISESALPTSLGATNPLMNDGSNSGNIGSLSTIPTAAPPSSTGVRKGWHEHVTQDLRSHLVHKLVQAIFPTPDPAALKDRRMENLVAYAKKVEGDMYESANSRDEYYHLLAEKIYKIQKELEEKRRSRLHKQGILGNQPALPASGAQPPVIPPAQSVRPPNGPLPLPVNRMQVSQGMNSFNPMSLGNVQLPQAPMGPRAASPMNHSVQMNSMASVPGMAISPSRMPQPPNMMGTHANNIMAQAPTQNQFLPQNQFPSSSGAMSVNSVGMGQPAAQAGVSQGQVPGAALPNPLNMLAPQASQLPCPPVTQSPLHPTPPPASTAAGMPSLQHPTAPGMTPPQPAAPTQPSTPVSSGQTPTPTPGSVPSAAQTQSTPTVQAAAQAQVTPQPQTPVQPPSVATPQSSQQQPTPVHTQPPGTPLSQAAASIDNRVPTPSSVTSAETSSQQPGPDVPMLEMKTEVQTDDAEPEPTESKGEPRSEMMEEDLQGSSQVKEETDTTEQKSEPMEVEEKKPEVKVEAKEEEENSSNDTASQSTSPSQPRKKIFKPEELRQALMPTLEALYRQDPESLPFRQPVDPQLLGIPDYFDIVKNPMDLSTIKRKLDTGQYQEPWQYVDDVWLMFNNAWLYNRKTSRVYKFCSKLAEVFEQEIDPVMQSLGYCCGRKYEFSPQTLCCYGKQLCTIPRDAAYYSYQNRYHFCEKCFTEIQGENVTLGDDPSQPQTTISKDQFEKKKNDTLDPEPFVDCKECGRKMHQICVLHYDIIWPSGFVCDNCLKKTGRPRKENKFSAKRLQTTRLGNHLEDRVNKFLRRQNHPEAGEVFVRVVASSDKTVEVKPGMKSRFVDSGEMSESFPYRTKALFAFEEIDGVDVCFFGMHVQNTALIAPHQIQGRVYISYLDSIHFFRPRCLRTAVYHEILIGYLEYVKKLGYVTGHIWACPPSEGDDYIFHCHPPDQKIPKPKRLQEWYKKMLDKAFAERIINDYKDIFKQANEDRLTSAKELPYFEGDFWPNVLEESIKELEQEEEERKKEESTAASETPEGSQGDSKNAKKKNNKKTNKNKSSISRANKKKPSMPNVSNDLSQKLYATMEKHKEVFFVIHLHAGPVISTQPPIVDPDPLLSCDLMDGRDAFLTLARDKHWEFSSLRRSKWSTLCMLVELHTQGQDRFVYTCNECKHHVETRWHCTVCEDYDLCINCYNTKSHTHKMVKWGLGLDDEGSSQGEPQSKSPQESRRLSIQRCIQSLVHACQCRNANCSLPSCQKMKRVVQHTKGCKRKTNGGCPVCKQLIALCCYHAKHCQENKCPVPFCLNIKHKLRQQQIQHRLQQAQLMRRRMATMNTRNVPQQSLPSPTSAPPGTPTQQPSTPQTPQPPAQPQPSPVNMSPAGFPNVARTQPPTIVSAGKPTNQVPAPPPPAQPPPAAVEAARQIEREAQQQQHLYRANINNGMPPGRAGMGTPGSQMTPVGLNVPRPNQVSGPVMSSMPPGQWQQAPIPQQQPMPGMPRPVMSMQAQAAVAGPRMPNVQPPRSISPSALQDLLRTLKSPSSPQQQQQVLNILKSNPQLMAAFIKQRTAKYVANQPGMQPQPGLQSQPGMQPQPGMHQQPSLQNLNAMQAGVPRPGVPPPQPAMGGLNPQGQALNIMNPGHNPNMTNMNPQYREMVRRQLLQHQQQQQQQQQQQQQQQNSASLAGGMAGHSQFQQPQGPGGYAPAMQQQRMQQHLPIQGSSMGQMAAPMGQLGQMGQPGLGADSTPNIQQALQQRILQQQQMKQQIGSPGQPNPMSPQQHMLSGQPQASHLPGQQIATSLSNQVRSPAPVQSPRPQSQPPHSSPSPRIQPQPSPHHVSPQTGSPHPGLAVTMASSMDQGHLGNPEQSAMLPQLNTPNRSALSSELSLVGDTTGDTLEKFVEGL

Key:
[1] = target: T1, Coenzyme A synthase (COASY), endogenous (human (endogenous in A549 and HEK-293T)) (UniProt Q13057); experiment: co-IP; mitotically synchronized HEK-293T cells; endogenous COASY immunoprecipitated, TPX2 and CBP detected (Supplementary Fig. 5b)
T1 sequence: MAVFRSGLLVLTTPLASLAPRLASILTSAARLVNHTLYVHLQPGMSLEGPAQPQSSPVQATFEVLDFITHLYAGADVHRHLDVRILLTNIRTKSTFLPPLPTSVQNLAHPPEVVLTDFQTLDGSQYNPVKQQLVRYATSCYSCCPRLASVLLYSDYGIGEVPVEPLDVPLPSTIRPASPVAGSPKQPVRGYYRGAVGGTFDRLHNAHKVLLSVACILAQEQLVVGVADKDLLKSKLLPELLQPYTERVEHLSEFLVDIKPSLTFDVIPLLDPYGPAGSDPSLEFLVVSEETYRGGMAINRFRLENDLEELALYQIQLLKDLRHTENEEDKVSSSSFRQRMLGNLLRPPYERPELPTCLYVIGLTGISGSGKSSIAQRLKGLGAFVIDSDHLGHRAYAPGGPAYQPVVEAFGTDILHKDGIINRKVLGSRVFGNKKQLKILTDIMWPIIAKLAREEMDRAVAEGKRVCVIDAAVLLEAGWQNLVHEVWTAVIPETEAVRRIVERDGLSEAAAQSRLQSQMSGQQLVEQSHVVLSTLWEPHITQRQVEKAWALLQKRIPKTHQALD

[2] = target: Targeting Protein for Xklp2 (TPX2), endogenous (human (endogenous in A549 and HEK-293T)) (UniProt Q9ULW0); experiment: co-IP; endogenous TPX2 pulled down with TPX2 antibody, endogenous CBP detected; with and without COASY knockdown; cell line not stated; NP-40 lysate
V5-tagged TPX2 [3] = target: V5-tagged TPX2 (UniProt Q9ULW0); experiment: co-IP; HEK-293T cotransfected with V5-TPX2 and HA-CBP (wild type or catalytic-deficient); 20 min after release from thymidine-nocodazole block; IP with V5 antibody or control IgG, blot for HA
V5-tagged TPX2 [4] = target: V5-tagged TPX2 (UniProt Q9ULW0); experiment: co-IP; as the V5-TPX2 / HA-CBP co-immunoprecipitation, repeated in MDA-MB-231 cells (Supplementary Fig. 4d)
[5] = target: CREB-binding protein (CBP), endogenous (human (endogenous in A549 and HEK-293T)) (UniProt Q92793); experiment: co-IP; as the endogenous CBP immunoprecipitation from A549 cells, at 80 min after release from thymidine-nocodazole block
[6] = target: CREB-binding protein (CBP), endogenous (human (endogenous in A549 and HEK-293T)) (UniProt Q92793); experiment: co-IP; A549 cells synchronized by thymidine-nocodazole block and released for the indicated times; endogenous CBP immunoprecipitated with CBP antibody, blot for TPX2 and COASY
FLAG-CBP-HA, wild type = FLAG-CBP-HA, wild type (UniProt P45481); experiment: co-IP; HEK-293T cotransfected with V5-tagged COASY domains and CBP cDNA, enriched in mitosis by nocodazole; HA-CBP immunoprecipitated, blot with V5 antibody

Molecule: Targeting Protein for Xklp2 (TPX2), endogenous (from UniProt Q9ULW0 1-747)
binding [5]: binds weakly
binding [6]: binds
binding [1]: binds

B2: Coenzyme A synthase (COASY), endogenous (protein, UniProt Q13057 1-564)
chain: T1 sequence
binding [5]: binds weakly
binding [6]: binds

Second part, the molecule after the results:

binding [1]: binds
binding [2]: binds
Molecule: CREB-binding protein (CBP), endogenous (from UniProt Q92793 1-2442)

binding (V5-tagged TPX2 [3]): binds
binding (V5-tagged TPX2 [4]): binds
Molecule: FLAG-CBP-HA, wild type (from UniProt P45481 1-2441)

binding (FLAG-CBP-HA, wild type): binds
B1: V5-PPAT domain of COASY (180-350) (domain or fragment, UniProt Q13057 180-350)
chain: VAGSPKQPVRGYYRGAVGGTFDRLHNAHKVLLSVACILAQEQLVVGVADKDLLKSKLLPELLQPYTERVEHLSEFLVDIKPSLTFDVIPLLDPYGPAGSDPSLEFLVVSEETYRGGMAINRFRLENDLEELALYQIQLLKDLRHTENEEDKVSSSSFRQRMLGNLLRPPYE
